Some entries share one result that the patent states for a list of compounds.
Legend:
Format in all cases: in vivo
[1] = tested on: Nephotettix cincticeps; assay: Systemic action against Nephotettix cincticeps; settings: systemic: pots with rice plants in 400 ppm emulsion, larvae in the 2nd and 3rd stages, evaluation 6 days later
[2] = tested on: Nilaparvata lugens; assay: Systemic action against Nilaparvata lugens; settings: systemic: pots with rice plants in 10 ppm emulsion, larvae in the 2nd and 3rd stages, evaluation 6 days later
[3] = tested on: Bemisia tabaci; assay: Action against Bemisia tabaci (sprayed dwarf bean plants); settings: 400 ppm spray on dwarf bean plants with nymphs, evaluation after a further 14 days

With `O=[N+]([O-])/C=C1\NCCC1Cc1ccc(Cl)nc1` (stereo not shown) [Compound 5.3, 3-(2-Chloropyrid-5-yl-methyl)2-nitromethylidene-pyrrolidine] the “percentage reduction in the population (% activity)” value (“percentage reduction … (% activity)” below) [1] was “more than 80%”, the “percentage reduction … (% activity)” value [2] was “more than 80%” and the “% effective (percentage hatching rate of the eggs in comparison with untreated control)” value [3] was “more than 80%”.

For `CN1CCC(Cc2ccc(Cl)nc2)/C1=C/[N+](=O)[O-]` (stereo not shown) [Compound 5.4, 3-(2-Chloropyrid-5-yl-methyl)-1methyl-2-nitromethylidene-pyrrolidine], the “percentage reduction … (% activity)” value [1] was “more than 80%”, the “percentage reduction … (% activity)” value [2] was “more than 80%” and the “% effective (percentage hatching rate of the eggs in comparison with untreated control)” value [3] was “more than 80%”.

`O=[N+]([O-])C=C1NCCCC1Cc1ccc(Cl)nc1` (stereo not shown) [Compound 5.16, 3-(2-chloropyrid-5-yl-methyl)-2-nitromethylidene-piperidine] was tested, and the “percentage reduction … (% activity)” value [1] was “more than 80%” and the “percentage reduction … (% activity)” value [2] was “more than 80%”.

For `CN1CCC(Cc2ccc(Cl)nc2)/C1=N/C#N` (stereo not shown) [Compound 6.4, 3-(2-Chloropyrid-5-yl-methyl)-1-methyl-2-cyanimino-pyrrolidine], the “percentage reduction … (% activity)” value [1] was “more than 80%” and the “percentage reduction … (% activity)” value [2] was “more than 80%”.
